A short description of this test: Inhibition of TAF1B (unknown origin) incubated for 1 hr by colloidal coomassie staining based LC-MS/MS analysis.

Each structure is given as a SMILES string. pIC50: −log10 of the molar value.

As usually defined, the pIC50 is the IC50 on a negative log10 scale, so that one unit is a factor of ten. Low values mean a high IC50, high ones a low IC50. `CCNC(=O)C[C@@H]1N=C(c2ccc(Cl)cc2)c2cc(OC)ccc2-n2c(C)nnc21` gave a negative logarithm of the IC50 (pIC50) of 6.74.
